Source: the supplement of paper PMC6411743
± gives the standard deviation of the averaged measurements. Some of the results follow.

Chains of the proteins cited; added tags and fusions are not shown. Lines headed by an entry give the natural chain unless they say otherwise; changes in a name come on top.
UniProt Q6PI78: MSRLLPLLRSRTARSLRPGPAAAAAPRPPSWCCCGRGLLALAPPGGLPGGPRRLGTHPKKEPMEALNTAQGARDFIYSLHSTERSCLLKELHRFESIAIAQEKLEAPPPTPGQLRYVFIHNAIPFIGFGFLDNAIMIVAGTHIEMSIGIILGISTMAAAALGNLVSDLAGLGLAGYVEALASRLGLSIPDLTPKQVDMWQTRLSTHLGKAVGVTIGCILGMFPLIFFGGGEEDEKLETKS
UniProt Q7Z4Q2: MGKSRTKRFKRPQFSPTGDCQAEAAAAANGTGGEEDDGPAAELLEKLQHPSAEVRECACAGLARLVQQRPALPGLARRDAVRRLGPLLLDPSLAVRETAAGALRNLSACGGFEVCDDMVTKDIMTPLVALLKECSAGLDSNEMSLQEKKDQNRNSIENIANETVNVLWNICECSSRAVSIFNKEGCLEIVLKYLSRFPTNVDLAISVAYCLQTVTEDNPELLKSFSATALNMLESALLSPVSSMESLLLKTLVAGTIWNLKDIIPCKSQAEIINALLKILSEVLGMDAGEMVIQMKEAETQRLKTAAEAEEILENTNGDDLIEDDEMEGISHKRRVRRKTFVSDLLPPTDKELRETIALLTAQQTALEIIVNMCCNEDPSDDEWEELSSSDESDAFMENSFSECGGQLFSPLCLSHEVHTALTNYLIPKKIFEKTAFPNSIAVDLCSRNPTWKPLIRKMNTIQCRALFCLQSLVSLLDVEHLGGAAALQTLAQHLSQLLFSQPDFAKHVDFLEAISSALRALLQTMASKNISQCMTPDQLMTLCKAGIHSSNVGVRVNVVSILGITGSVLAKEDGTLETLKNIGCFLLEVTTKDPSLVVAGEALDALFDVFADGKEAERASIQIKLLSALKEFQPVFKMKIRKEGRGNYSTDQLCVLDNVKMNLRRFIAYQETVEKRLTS
UniProt Q70CQ2: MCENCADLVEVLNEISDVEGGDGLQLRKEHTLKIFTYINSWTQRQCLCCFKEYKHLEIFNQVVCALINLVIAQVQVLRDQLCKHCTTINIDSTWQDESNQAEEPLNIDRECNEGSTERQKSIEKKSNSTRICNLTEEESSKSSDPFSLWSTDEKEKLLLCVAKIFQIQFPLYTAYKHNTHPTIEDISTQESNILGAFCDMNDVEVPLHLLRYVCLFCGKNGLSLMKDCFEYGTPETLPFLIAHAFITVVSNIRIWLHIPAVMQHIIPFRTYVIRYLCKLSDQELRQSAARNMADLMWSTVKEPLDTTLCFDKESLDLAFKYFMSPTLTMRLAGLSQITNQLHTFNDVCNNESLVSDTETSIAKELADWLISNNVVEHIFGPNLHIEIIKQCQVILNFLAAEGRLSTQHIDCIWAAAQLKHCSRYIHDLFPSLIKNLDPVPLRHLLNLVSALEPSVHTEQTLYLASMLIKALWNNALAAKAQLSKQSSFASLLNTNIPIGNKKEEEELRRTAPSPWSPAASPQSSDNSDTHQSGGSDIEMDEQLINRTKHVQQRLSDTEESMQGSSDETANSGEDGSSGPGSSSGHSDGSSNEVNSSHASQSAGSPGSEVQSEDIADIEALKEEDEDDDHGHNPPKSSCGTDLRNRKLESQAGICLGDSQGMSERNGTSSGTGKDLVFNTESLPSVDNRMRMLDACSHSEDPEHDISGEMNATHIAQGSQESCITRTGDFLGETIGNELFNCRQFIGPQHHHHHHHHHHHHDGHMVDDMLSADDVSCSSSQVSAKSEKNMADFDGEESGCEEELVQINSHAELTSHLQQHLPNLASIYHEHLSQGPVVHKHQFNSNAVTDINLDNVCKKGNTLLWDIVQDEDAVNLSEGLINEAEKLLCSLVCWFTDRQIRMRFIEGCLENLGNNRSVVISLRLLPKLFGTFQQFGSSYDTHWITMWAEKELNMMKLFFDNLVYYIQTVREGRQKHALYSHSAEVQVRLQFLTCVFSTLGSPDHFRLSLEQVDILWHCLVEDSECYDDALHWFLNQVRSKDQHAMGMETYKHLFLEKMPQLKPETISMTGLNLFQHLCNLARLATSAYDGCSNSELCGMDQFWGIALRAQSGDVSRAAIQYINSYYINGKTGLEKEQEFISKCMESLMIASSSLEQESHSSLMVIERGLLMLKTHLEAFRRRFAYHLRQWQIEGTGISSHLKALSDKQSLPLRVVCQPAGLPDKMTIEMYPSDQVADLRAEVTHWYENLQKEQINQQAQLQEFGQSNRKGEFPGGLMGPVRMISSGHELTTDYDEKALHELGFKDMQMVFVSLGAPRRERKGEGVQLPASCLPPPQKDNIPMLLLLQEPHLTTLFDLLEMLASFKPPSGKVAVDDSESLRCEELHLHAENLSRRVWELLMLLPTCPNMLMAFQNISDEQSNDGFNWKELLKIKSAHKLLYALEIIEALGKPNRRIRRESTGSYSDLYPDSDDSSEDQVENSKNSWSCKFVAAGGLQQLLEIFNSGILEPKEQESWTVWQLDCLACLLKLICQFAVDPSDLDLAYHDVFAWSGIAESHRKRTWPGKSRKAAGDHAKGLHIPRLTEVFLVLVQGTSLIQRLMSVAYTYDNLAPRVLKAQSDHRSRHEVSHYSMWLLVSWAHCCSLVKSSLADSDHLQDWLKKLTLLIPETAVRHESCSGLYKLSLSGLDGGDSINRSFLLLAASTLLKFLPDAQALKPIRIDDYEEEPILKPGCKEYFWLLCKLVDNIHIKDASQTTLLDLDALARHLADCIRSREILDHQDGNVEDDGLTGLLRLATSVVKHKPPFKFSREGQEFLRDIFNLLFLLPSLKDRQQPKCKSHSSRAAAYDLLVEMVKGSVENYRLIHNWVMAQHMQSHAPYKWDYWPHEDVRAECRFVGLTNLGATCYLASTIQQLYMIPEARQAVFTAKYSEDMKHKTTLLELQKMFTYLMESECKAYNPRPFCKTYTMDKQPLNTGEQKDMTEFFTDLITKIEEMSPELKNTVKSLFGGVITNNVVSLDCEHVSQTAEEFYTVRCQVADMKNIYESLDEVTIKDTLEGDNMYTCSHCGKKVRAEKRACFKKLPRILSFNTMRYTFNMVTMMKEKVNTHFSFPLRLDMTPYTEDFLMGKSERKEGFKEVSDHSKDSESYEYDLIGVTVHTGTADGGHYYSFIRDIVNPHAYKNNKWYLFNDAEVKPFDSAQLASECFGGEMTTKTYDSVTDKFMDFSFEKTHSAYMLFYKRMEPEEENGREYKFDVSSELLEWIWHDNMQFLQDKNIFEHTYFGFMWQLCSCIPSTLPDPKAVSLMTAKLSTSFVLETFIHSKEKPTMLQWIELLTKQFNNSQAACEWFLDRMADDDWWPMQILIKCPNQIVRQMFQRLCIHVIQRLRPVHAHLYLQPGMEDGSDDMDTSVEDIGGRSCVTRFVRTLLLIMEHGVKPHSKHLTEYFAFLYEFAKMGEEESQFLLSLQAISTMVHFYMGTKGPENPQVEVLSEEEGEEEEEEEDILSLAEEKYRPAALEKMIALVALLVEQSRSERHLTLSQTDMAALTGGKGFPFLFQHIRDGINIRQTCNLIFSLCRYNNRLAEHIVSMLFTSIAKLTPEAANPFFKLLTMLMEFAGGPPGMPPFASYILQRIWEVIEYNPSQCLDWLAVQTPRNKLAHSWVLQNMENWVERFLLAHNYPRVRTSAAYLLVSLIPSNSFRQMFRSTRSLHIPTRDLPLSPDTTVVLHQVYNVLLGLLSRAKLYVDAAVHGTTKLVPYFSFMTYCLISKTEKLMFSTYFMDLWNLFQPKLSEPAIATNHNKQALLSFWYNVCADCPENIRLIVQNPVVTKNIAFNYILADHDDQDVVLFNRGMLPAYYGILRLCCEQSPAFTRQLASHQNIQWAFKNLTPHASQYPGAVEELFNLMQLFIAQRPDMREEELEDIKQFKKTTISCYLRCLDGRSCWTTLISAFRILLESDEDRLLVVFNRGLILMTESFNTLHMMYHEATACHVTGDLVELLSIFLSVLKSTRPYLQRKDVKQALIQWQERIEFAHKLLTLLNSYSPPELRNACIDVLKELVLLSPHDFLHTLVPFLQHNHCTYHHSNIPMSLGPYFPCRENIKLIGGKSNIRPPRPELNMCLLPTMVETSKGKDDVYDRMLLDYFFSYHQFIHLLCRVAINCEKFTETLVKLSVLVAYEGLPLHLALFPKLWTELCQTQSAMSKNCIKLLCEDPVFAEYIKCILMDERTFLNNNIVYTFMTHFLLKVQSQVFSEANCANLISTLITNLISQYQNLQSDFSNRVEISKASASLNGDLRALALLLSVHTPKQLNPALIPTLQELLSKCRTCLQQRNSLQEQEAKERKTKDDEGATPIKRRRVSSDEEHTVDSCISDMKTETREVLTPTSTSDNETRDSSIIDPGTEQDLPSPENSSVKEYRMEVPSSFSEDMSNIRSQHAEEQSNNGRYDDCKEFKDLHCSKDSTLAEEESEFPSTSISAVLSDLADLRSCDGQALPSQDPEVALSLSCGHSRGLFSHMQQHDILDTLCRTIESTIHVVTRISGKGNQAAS
UniProt Q7Z3U7: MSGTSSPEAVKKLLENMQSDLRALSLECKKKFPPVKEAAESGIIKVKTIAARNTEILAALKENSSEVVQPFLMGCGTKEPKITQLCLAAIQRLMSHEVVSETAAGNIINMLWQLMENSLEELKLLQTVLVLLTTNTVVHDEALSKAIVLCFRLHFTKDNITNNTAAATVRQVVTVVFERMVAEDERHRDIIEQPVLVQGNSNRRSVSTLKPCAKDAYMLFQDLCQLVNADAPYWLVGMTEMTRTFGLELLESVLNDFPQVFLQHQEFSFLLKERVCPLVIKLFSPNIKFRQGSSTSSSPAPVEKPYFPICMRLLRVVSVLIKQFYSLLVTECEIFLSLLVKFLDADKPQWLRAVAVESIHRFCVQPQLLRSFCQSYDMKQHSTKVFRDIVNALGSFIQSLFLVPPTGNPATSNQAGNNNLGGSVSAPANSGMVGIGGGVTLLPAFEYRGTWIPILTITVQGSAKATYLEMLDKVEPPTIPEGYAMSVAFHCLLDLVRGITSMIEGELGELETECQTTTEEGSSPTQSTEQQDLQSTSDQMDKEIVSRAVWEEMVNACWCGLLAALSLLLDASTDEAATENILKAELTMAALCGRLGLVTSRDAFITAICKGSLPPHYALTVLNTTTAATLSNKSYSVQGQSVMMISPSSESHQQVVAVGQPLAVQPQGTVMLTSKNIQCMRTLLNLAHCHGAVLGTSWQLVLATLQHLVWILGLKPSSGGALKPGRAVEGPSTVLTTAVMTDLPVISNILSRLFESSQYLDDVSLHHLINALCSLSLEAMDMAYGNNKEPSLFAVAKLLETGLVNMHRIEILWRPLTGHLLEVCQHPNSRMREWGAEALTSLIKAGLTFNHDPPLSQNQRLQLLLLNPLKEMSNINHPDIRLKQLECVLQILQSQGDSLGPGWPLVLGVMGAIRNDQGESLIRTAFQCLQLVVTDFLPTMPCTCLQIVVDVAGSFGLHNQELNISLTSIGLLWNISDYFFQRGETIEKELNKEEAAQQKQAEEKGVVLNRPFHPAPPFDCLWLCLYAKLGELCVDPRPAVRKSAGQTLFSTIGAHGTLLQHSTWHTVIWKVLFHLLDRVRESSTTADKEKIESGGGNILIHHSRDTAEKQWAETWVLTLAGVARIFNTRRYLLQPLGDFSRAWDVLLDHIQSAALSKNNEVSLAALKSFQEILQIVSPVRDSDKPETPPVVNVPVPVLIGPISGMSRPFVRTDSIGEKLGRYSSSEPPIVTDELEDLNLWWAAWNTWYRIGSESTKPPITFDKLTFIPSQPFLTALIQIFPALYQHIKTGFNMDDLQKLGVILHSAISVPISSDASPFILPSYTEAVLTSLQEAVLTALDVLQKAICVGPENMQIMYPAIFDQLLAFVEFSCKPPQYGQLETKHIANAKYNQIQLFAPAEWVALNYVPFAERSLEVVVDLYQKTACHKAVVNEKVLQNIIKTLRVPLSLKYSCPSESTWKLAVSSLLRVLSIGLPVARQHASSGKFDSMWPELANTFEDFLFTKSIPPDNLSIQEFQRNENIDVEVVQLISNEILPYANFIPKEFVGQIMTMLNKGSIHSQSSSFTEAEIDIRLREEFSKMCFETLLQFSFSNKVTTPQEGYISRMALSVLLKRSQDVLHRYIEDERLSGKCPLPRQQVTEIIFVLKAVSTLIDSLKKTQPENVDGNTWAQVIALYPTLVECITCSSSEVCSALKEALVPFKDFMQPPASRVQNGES
UniProt Q68CQ7: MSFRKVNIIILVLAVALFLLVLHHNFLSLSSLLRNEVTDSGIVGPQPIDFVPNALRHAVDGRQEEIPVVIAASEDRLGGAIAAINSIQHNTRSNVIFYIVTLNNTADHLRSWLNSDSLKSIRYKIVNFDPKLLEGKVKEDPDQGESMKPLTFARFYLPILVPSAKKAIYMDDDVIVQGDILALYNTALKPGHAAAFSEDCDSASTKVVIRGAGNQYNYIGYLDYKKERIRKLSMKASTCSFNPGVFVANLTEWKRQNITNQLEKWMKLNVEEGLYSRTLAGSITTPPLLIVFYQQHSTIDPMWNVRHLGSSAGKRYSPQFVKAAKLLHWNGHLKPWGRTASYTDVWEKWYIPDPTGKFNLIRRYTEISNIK

Compound: Nc1nc2c(ncn2[C@@H]2O[C@H](COP(=O)(O)OP(=O)(O)OP(=O)(O)O)[C@@H](O)[C@H]2O)c(=O)[nH]1 [guanosine triphosphate]
Assay: NP40-soluble protein abundance relative to vehicle (solubility fold change) (ratio); higher = more soluble protein in presence of GTP
How it was run: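 Crude Jurkat lysate, prepared by Dounce homogenisation, was exposed to eight concentrations from 0.1 to 10 mM for 10 min at room temperature and then 3 min at 37 °C. Solubilisation used 0.8% NP40 with benzonase for 60 min at 4 °C, followed by ultracentrifugation and TMT labelling of the supernatant for LC-MS/MS. After vsn normalisation of intensities, each value is the fold change against the detergent-processed vehicle within each replicate, across three independent experiments.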

Target	NP40-soluble protein abundance (concentration: 0.1mM)	NP40-soluble protein abundance (concentration: 0.5mM)	NP40-soluble protein abundance (concentration: 1mM)	NP40-soluble protein abundance (concentration: 2mM)	NP40-soluble protein abundance (concentration: 4mM)	NP40-soluble protein abundance (concentration: 6mM)	NP40-soluble protein abundance (concentration: 8mM)	NP40-soluble protein abundance (concentration: 10mM)
TMEM65 (UniProt Q6PI78)	1.1 ± 0.37	0.919 ± 0.079	0.932 ± 0.094	0.996 ± 0.21	0.921 ± 0.084	0.849 ± 0.12	0.853 ± 0.074	0.88 ± 0.089
HEATR3 (UniProt Q7Z4Q2)	1.056 ± 0.0086	1 ± 0.032	1 ± 0.023	1.03 ± 0.035	1.05 ± 0.062	1.03 ± 0.046	1.04 ± 0.018	1.02 ± 0.052
USP34 (UniProt Q70CQ2)	1.07 ± 0.075	1.06 ± 0.056	0.983 ± 0.069	1.01 ± 0.094	1.04 ± 0.094	1 ± 0.12	0.987 ± 0.069	0.966 ± 0.073
UniProt Q7Z4V5 and related entries	0.9 ± 0.11	0.855 ± 0.11	0.875 ± 0.13	0.842 ± 0.14	0.857 ± 0.14	0.858 ± 0.12	0.913 ± 0.12	0.949 ± 0.1
UniProt Q6YP21 and related entries	1.03 ± 0.046	1.02 ± 0.058	0.943 ± 0.043	0.928 ± 0.073	0.925 ± 0.087	0.9 ± 0.06	0.874 ± 0.042	0.834 ± 0.064
ARHGAP30 (UniProt Q7Z6I6)	0.947 ± 0.042	1.03 ± 0.091	0.997 ± 0.082	0.98 ± 0.088	0.958 ± 0.084	1 ± 0.082	0.979 ± 0.079	0.973 ± 0.096
UniProt Q6UN15 and related entries	0.987 ± 0.086	1.09 ± 0.026	1.207 ± 0.0064	1.21 ± 0.052	1.267 ± 0.0056	1.329 ± 0.0046	1.38 ± 0.1	1.35 ± 0.093
Q5TDE7 and related entries (UniProt Q5VTB9)	1.02 ± 0.15	0.909 ± 0.13	0.908 ± 0.12	0.938 ± 0.24	0.987 ± 0.13	0.97 ± 0.17	0.968 ± 0.086	0.909 ± 0.13
UniProt Q7Z3U7 and related entries	1.17 ± 0.26	1.2 ± 0.29	1.17 ± 0.19	1.18 ± 0.22	1.13 ± 0.28	1.12 ± 0.25	1.21 ± 0.17	1.12 ± 0.18
ATL3 (UniProt Q6DD88)	0.978 ± 0.045	0.977 ± 0.027	0.954 ± 0.051	0.919 ± 0.058	0.928 ± 0.068	0.922 ± 0.054	0.946 ± 0.069	0.907 ± 0.063
UniProt Q7Z2E3 and related entries	1.06 ± 0.074	1.05 ± 0.08	1.02 ± 0.067	1.13 ± 0.089	1.17 ± 0.079	1.22 ± 0.19	1.21 ± 0.11	1.24 ± 0.094
UniProt Q6UWP7 and related entries	1.12 ± 0.086	1.14 ± 0.15	1.03 ± 0.025	1.11 ± 0.065	0.991 ± 0.061	1.02 ± 0.11	0.968 ± 0.082	0.991 ± 0.13
PTAR1 (UniProt Q7Z6K3)	0.975 ± 0.23	0.935 ± 0.031	0.866 ± 0.012	0.945 ± 0.089	0.945 ± 0.14	0.824 ± 0.079	0.786 ± 0.074	0.887 ± 0.087
UniProt Q7Z591 and related entries	1.02 ± 0.092	0.915 ± 0.048	1.07 ± 0.048	1.11 ± 0.067	1.13 ± 0.11	1.15 ± 0.047	1.19 ± 0.16	1.21 ± 0.14
UniProt Q6ZSZ5 and related entries	1.03 ± 0.021	1.04 ± 0.044	1.05 ± 0.029	1.05 ± 0.058	1.03 ± 0.072	1.08 ± 0.027	1.07 ± 0.082	1.06 ± 0.055
UHRF1BP1 (UniProt Q6BDS2)	1.04 ± 0.013	0.972 ± 0.065	1.07 ± 0.027	1.05 ± 0.12	1.11 ± 0.12	1.05 ± 0.12	1.02 ± 0.056	1.04 ± 0.06
EDC4 (UniProt Q6P2E9)	0.984 ± 0.029	1 ± 0.037	1.01 ± 0.045	1.01 ± 0.029	1.01 ± 0.039	1.02 ± 0.032	1.02 ± 0.057	1.04 ± 0.046
UniProt Q6IA86 and related entries	1.11 ± 0.12	1.08 ± 0.16	0.983 ± 0.12	1.06 ± 0.23	1.08 ± 0.17	0.977 ± 0.17	0.959 ± 0.092	0.984 ± 0.16
UniProt Q7Z3D6-2|Q7Z3D6-4|E5RHG2 and related entries	0.999 ± 0.03	1.01 ± 0.093	1.03 ± 0.095	1 ± 0.077	0.943 ± 0.086	0.98 ± 0.1	0.971 ± 0.045	0.997 ± 0.097
UniProt Q6PD74 and related entries	1.04 ± 0.029	1.01 ± 0.088	1.04 ± 0.092	0.987 ± 0.081	0.943 ± 0.059	0.951 ± 0.12	1 ± 0.057	0.979 ± 0.071
UniProt Q86U86 and related entries	1.07 ± 0.048	1.14 ± 0.078	1.21 ± 0.092	1.38 ± 0.11	1.53 ± 0.12	1.61 ± 0.16	1.72 ± 0.16	1.78 ± 0.18
UniProt Q86W42 and related entries	1.21 ± 0.14	1.35 ± 0.28	1.46 ± 0.27	1.87 ± 0.52	2.27 ± 0.61	2.29 ± 0.68	2.26 ± 0.54	2.31 ± 0.65
Q5VWV2 and related entries (UniProt Q8TEW0)	1.02 ± 0.11	1.02 ± 0.084	1.05 ± 0.098	1.07 ± 0.089	1.17 ± 0.14	1.15 ± 0.14	1.2 ± 0.14	1.19 ± 0.1
NXN (UniProt Q6DKJ4)	1.07 ± 0.082	1.04 ± 0.044	1.05 ± 0.064	0.994 ± 0.071	0.969 ± 0.068	1.01 ± 0.04	1 ± 0.092	0.925 ± 0.043
UniProt Q712K3	0.89 ± 0.017	0.814 ± 0.026	0.882 ± 0.015	0.86 ± 0.014	0.838 ± 0.055	0.832 ± 0.051	0.801 ± 0.086	0.836 ± 0.035
ZFYVE16 (UniProt Q7Z3T8)	0.967 ± 0.072	0.934 ± 0.035	0.955 ± 0.068	0.931 ± 0.081	0.907 ± 0.059	0.906 ± 0.052	0.928 ± 0.048	0.92 ± 0.04
UniProt Q7L2H7	1.02 ± 0.077	1.02 ± 0.11	0.977 ± 0.096	1.07 ± 0.16	1.14 ± 0.23	1.15 ± 0.21	1.17 ± 0.13	1.32 ± 0.24
UniProt Q7L0J3 and related entries	1.06 ± 0.066	1.07 ± 0.036	1.02 ± 0.05	1.05 ± 0.019	1.07 ± 0.043	1.05 ± 0.03	1.05 ± 0.028	1.01 ± 0.067
GLT8D1 (UniProt Q68CQ7)	0.964 ± 0.075	0.955 ± 0.06	0.897 ± 0.085	0.951 ± 0.028	0.977 ± 0.085	0.931 ± 0.098	0.926 ± 0.076	0.911 ± 0.1
ZBTB33 (UniProt Q86T24)	1.02 ± 0.13	1.05 ± 0.04	1.01 ± 0.088	0.97 ± 0.12	0.988 ± 0.1	0.959 ± 0.048	0.992 ± 0.1	0.986 ± 0.099

Quoted from the listing for reference:
Target	NP40-soluble protein abundance (concentration: 0.1mM)	NP40-soluble protein abundance (concentration: 0.5mM)	NP40-soluble protein abundance (concentration: 1mM)	NP40-soluble protein abundance (concentration: 2mM)	NP40-soluble protein abundance (concentration: 4mM)	NP40-soluble protein abundance (concentration: 6mM)	NP40-soluble protein abundance (concentration: 8mM)	NP40-soluble protein abundance (concentration: 10mM)
UniProt Q86W42 and related entries	1.21 ± 0.14	1.35 ± 0.28	1.46 ± 0.27	1.87 ± 0.52	2.27 ± 0.61	2.29 ± 0.68	2.26 ± 0.54	2.31 ± 0.65
Q5VWV2 and related entries (UniProt Q8TEW0)	1.02 ± 0.11	1.02 ± 0.084	1.05 ± 0.098	1.07 ± 0.089	1.17 ± 0.14	1.15 ± 0.14	1.2 ± 0.14	1.19 ± 0.1
